Experimental data taken from PubChem BioAssay AID2685 (National Center for Advancing Translational Sciences (NCATS), 2010).
The other results are listed elsewhere or left out. The main result of the screen is listed elsewhere. These columns were measured beside it and carry no call. Compounds called inactive in the main read-out are mostly missing here. The note in brackets gives the kind of curve behind each potency; many fits are weak.

Experiment: qHTS Assay for Lipid Storage Modulators in Drosophila S3 Cells;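 for cell number change: cells counted by Cell Tracker Red CMTPX staining in the red channel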
Conditions: BODIPY lipid droplet fluorescence, 18-24 h; for cell number change: measured here: cell count max response, cells fed with added oleic acid
Procedure, shortened: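 Drosophila S3 cells loaded with oleic acid (400 uM, as added) and compounds at several concentrations; lipid droplets imaged by 488-nm laser-scanning cytometry, 500–530 nm intensity and object ratio to cell channel. Percent activity normalized to 20 uM Triacsin C.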

[1] = measured here: cell number channel AC50, cells fed with added oleic acid
[2] = measured here: lipid fluorescence (Fed channel) AC50, cells fed with added oleic acid

Nc1nnc(-c2cn(-c3ccccc3)nc2-c2ccccc2)o1
cell number change: 67.4%
AC50 [1]: 0.731 µM [rising, full curve, poor fit]
AC50 [2]: 0.731 µM [rising, full curve]

Cc1cccc(NC(=O)N(Cc2cc3cc(C)cc(C)c3[nH]c2=O)CC2COCCO2)c1 (centres undefined)
cell number change: 45.4%
AC50 [1]: 0.731 µM [rising, full curve]
AC50 [2]: 0.651 µM [rising, full curve]

NC(=O)c1ccc(NC(=O)c2ccc3c(c2)CCN3S(=O)(=O)c2ccccc2)cc1
cell number change: -40.7%
AC50 [1]: 18.4 µM [falling, single point]

CC(=O)c1cnc(Nc2ccc(C)cc2)s1
cell number change: -4.41%
AC50 [1]: 0.082 µM [rising, full curve]
AC50 [2]: 0.731 µM [rising, full curve, poor fit]

O=C(COc1ccc(Cl)cc1)NCCCNC(=O)c1ccccn1
AC50 [1]: 0.58 µM [rising, full curve, poor fit]

COc1cc(OC)cc(C(=O)NC(C(=O)NNC(=O)c2cc(Cl)ccc2OC)C(C)C)c1 (centres undefined)
cell number change: -4.83%
AC50 [2]: 29.1 µM [rising, single point]

FC(F)(F)c1ccc(Sc2nnc(-c3cccs3)n2CC2CCCO2)nc1 (centres undefined)
AC50 [1]: 6.51 µM [rising, single point]
AC50 [2]: 2.91 µM [rising, partial curve]

Cc1n[nH]c(=O)c2c(NC(=O)COC(=O)c3ncc(Cl)c(Cl)c3Cl)oc(C)c12
cell number change: -30.7%
AC50 [1]: 4.61 µM [falling, full curve, poor fit]
AC50 [2]: 25.9 µM [falling, single point]

COc1ccccc1OCC(=O)NCCSCc1cccc(Cl)c1
cell number change: 128%
AC50 [1]: 16.4 µM [rising, partial curve]
AC50 [2]: 23.1 µM [rising, single point]

Cc1ccc(-n2nc3c(=O)n(CCCC(=O)NCc4ccccc4Cl)nc(C)c3c2C)cc1
cell number change: 30.9%
AC50 [1]: 1.46 µM [rising, full curve, poor fit]
AC50 [2]: 5.17 µM [rising, partial curve]

CCOP(=O)(/C(C#N)=C(\C)O)c1ccccc1 (centres undefined)
cell number change: -26.5%
AC50 [1]: 0.00411 µM [falling, full curve, poor fit]

O=S(=O)(c1ccccc1)c1nc(-c2ccccc2)oc1NCc1cccnc1
cell number change: -29%
AC50 [2]: 1.46 µM [rising, partial curve, poor fit]

CCN1C(=O)C2(C(C#N)=C(N)Oc3n[nH]c(-c4ccccc4)c32)c2ccccc21 (centres undefined)
cell number change: -8.52%

O=C(NC(=S)Nc1ccc2c(c1)OCO2)c1ccc(Cl)cc1
AC50 [1]: 0.58 µM [rising, single point]
AC50 [2]: 0.116 µM [rising, full curve, poor fit]

COc1cccc(C2=NN(C(=O)c3ccco3)C(c3ccco3)C2)c1 (centres undefined)
cell number change: 17.1%
AC50 [2]: 0.00461 µM [rising, full curve, poor fit]

O=C(NCCCN1CCCC1=O)C(=O)Nc1cccc(F)c1
cell number change: 17.5%

COc1cc(C(=O)NCC(C)(C)CNC(=O)c2cc(OC)c(OC)c(OC)c2)cc(OC)c1OC
cell number change: -7.41%

CCOc1ncccc1C(=O)OCCN1C(=O)c2ccccc2C1=O
cell number change: -7.99%
AC50 [2]: 0.13 µM [falling, full curve, poor fit]

CCc1ccc2nc(N(CCN(C)C)C(=O)c3ccc4ccccc4c3)sc2c1
AC50 [2]: 13 µM [rising, partial curve, poor fit]

COc1cc2ccccc2cc1C(=O)OCc1nc2ccsc2c(=O)[nH]1
cell number change: -65.5%
AC50 [1]: 14.6 µM [falling, partial curve]
AC50 [2]: 0.461 µM [falling, full curve]

CCN(CC)S(=O)(=O)c1ccc2c(c1)nc(CCC(=O)O)n2C
cell number change: 15.7%

CCN(CC)CC(=O)NN=C(c1ccccc1)c1ccccc1
cell number change: 12.5%

C[C@@]12C(=O)N(c3cccc(F)c3)C(=O)N1[C@H](c1ccc(Cl)cc1)[C@@H]1C(=O)N(C3CCCCC3)C(=O)[C@@H]12
cell number change: 6.53%
AC50 [2]: 0.651 µM [falling, partial curve, poor fit]

O=C1NCC(COCc2ccccc2)O1 (centres undefined)
cell number change: -14.9%
AC50 [1]: 0.731 µM [falling, full curve]

CCNc1nc(Cl)nc(NCc2ccccc2)n1
cell number change: -1.28%

CC(=O)Nc1ccc(NC(=O)C(C)OC(=O)c2ccc3[nH]c(C)c(C)c3c2)cc1 (centres undefined)
cell number change: 131%
AC50 [1]: 11.6 µM [rising, partial curve]

CCOC(=O)[C@@H]1[C@H]2COc3ccccc3[C@@H]2N2C(=O)N(c3ccc(C)cc3)C(=O)[C@]12C
cell number change: 2.4%
AC50 [2]: 23.1 µM [rising, single point]

O=C1c2ccccc2-n2c1nc1ccccc1c2=O
cell number change: -11.5%
AC50 [2]: 0.517 µM [falling, full curve]

O=C1CN(C(=O)Cn2ncc(Cl)c(Cl)c2=O)c2ccccc2N1
cell number change: -3.53%

Cc1nn(C)c(C)c1CNC(=O)/C=C/c1ccccc1F
cell number change: 27%
AC50 [2]: 8.2 µM [rising, partial curve]

COc1ccc(NS(=O)(=O)c2cccc(C(=O)N(C)CC(=O)Nc3ccc(C)cc3)c2)cc1
cell number change: -95.8%
AC50 [1]: 11.6 µM [falling, partial curve]

O=c1cc(-c2ccccc2)oc2cc(OCc3ccccc3)cc(O)c12
cell number change: 15.9%

CCOc1cc(C(=O)Nc2cc(=O)n(C)c(=O)n2C)cc(OCC)c1OCC
cell number change: 17.4%

COc1ccc(N2CCN(C(=O)c3ccc(CS(=O)(=O)c4ccc(Br)cc4)o3)CC2)cc1
cell number change: 62.4%
AC50 [1]: 23.1 µM [rising, single point]

O=C(NCc1cccc(C(F)(F)F)c1)C1CC(c2c(Cl)cccc2Cl)=NO1 (centres undefined)
cell number change: -8.75%
AC50 [1]: 5.8 µM [falling, partial curve]
AC50 [2]: 6.51 µM [falling, partial curve]

CCCn1c(N2CCN(CC(=O)Nc3ccc4c(c3)OCCO4)CC2)nc2ccccc21
cell number change: 43.8%
AC50 [1]: 29.1 µM [rising, single point]

CCOC(=O)C1(Cc2ccc(OC)cc2)CCN(C(=O)C2CC(=O)N(C3CC3)C2)CC1 (centres undefined)
cell number change: -22.2%
AC50 [1]: 1.03 µM [falling, full curve, poor fit]

O=C(COC(=O)c1ccccc1Cl)Nc1ccc2[nH]c(=O)[nH]c2c1
cell number change: 1.5%

COc1ccc(-c2nnn(CC(=O)c3ccccc3)n2)cc1OC
cell number change: 14.7%

CC(NC(=O)OCc1ccccc1)C(=O)NCC1CCCO1 (centres undefined)
cell number change: 91.8%
AC50 [1]: 23.1 µM [rising, partial curve]
AC50 [2]: 1.64 µM [rising, single point]

CCOc1ccccc1OCC(=O)N/N=C(\C)Cc1ccc(OC)cc1
AC50 [2]: 29.1 µM [rising, single point]

O=C(O)CCC(=O)Nc1sc2c(c1C(=O)Nc1cccc3ccccc13)CCCCC2
cell number change: -28.3%
AC50 [2]: 6.51 µM [falling, single point]

CC1(c2ccccc2)CC(C)(C)N2C(=O)Cc3cccc1c32 (centres undefined)
cell number change: -28%
AC50 [2]: 29.1 µM [falling, single point]

Cc1c(NC(=S)SCc2ccccc2)c(=O)n(-c2ccccc2)n1C
cell number change: -2.44%
AC50 [2]: 0.103 µM [rising, full curve, poor fit]

COc1ccc(NC(=O)C2CC(=O)N(C(C)C)C2)cc1 (centres undefined)
cell number change: 1.07%
AC50 [2]: 0.13 µM [falling, full curve, poor fit]

CC(=O)C1=C(C)NC(SCC(=O)c2cc(Cl)ccc2Cl)=C(C#N)C1c1ccco1 (centres undefined)
cell number change: -35.8%
AC50 [1]: 11.6 µM [falling, partial curve]
AC50 [2]: 29.1 µM [falling, single point]

CCCCSc1nn[nH]n1
cell number change: 4.1%
AC50 [2]: 1.84 µM [falling, partial curve]

O=C(N/N=C/c1cccnc1)c1ccccc1NS(=O)(=O)c1cccs1
cell number change: -16.8%

COc1ccccc1-n1c(C)nnc1SCC(N)=O
cell number change: -200%
AC50 [1]: 29.1 µM [falling, single point]

CC(=O)c1sc(NC(=O)CCNC(=O)c2ccco2)nc1-c1ccccc1
cell number change: 3.97%
AC50 [1]: 6.51 µM [rising, single point]
AC50 [2]: 29.1 µM [falling, single point]

COCCCNC(=O)CSc1c2c(nc3ccc(Cl)cc13)CCCC2
cell number change: 3.21%
AC50 [2]: 0.58 µM [rising, single point]

CC(=O)c1ccc(NC(=S)Nc2ccc(Br)c(Cl)c2)cc1
cell number change: -51.4%
AC50 [1]: 0.103 µM [falling, full curve, poor fit]

CNC(=O)c1nnsc1S(=O)c1ccc(Cl)cc1 (centres undefined)
cell number change: -46.4%
AC50 [1]: 29.1 µM [falling, single point]
AC50 [2]: 29.1 µM [falling, partial curve, poor fit]

C=CCN1C(=O)N(c2ccc(Cl)cc2)C(=O)C1CC(=O)Nc1ccc(F)cc1 (centres undefined)
cell number change: 1.53%
AC50 [1]: 7.31 µM [falling, single point]
AC50 [2]: 0.0058 µM [falling, full curve, poor fit]

C=CCn1c(SCC(=O)c2c(N)n(CCC)c(=O)n(C)c2=O)nnc1-c1ccncc1
AC50 [1]: 6.51 µM [rising, single point]

CCN(c1ccc(OC)cc1)S(=O)(=O)c1nnc(NC(=O)c2ccccc2Cl)s1
cell number change: -30.4%
AC50 [1]: 3.66 µM [falling, partial curve]

CCOC(=O)c1ccccc1NS(=O)(=O)c1ccccc1
cell number change: 17.4%
AC50 [2]: 0.58 µM [rising, single point]

CC1CN(S(=O)(=O)c2cccc(C(=O)OC/C(O)=C(\C#N)c3nc4ccccc4[nH]3)c2)CC(C)O1 (centres undefined)
cell number change: -51.7%
AC50 [1]: 29.1 µM [falling, single point]
AC50 [2]: 29.1 µM [falling, single point]
